No constants are given. Whether binding was seen depends on the method and setting. In cells and extracts the contact can be indirect. A yes stands for co-enrichment or nearness to the bait. Other partners may have been found. Tags and fused reporters may be left off the sequences shown.
Target: T1, chimera of APEX2 fused to the CT of PDZD8 (human) (UniProt Q8NEN9)
T1 sequence: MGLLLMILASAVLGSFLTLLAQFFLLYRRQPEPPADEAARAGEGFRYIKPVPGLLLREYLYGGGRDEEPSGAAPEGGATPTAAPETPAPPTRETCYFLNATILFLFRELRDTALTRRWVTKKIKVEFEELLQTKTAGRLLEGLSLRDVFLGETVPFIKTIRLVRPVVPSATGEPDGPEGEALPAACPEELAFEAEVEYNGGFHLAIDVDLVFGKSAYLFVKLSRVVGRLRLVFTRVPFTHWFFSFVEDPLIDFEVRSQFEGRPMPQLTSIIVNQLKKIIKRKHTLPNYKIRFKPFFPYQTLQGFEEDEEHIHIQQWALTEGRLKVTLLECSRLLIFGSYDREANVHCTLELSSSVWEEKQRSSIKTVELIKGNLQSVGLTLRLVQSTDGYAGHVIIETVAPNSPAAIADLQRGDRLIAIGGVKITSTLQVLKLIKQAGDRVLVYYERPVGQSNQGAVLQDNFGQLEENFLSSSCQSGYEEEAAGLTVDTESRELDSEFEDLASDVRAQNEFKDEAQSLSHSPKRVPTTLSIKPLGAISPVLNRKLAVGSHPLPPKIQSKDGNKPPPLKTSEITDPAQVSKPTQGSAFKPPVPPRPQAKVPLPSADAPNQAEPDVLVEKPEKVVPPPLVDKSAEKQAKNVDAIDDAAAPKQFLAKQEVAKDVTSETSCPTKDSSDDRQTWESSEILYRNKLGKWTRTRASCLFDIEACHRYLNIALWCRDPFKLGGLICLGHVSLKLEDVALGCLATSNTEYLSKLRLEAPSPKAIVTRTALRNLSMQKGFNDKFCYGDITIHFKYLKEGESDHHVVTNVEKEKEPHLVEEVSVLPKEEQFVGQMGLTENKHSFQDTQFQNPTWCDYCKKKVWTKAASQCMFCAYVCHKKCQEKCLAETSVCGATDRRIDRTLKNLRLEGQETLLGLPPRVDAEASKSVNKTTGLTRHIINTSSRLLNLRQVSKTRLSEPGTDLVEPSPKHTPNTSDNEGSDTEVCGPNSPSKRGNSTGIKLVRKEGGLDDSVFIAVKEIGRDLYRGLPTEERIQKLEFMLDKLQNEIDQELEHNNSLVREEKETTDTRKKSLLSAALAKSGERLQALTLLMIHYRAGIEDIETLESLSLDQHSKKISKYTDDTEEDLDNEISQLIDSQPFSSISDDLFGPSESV
Test: proximity labelling; APEX2 labelling in MEFs stably expressing APEX2-PDZD8 (biotinyl tyramide 30 min, 1 mM H2O2 1 min), subcellular fractionation (IMM, matrix), streptavidin beads, blot for GLS1; starved or unstarved cells; GLS1 hardly biotinylated in the matrix fraction

By UniProt entry, the sequences of proteins in these tests, tags left out. Residues count along the entry.
UniProt D3Z7P3, residues 55-674: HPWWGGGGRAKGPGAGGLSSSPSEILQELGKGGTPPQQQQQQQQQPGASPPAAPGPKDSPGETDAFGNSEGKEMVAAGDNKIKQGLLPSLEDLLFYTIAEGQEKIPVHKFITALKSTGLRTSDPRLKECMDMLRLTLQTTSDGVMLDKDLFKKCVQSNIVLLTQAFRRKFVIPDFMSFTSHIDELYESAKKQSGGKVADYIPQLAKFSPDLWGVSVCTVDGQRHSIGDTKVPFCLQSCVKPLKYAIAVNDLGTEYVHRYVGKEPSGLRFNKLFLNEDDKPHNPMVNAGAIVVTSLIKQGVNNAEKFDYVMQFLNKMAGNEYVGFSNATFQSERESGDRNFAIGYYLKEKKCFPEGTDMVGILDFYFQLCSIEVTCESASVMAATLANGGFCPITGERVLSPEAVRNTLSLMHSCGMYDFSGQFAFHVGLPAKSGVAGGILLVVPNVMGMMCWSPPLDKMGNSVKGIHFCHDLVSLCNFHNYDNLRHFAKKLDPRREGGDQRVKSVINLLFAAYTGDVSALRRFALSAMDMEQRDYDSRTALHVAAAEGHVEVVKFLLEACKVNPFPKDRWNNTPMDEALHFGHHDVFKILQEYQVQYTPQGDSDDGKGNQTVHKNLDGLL

- binding: binds
Substance: glutaminase 1 (GLS1; both KGA and GAC), endogenous in MEFs (from UniProt D3Z7P3 55-674) (enzyme)

Source: article PMC11442470
